No constants are given. Whether binding was seen depends on the method and setting. For some of these results: A result given as binding can be weak or reduced; the word gives no strength.
Assays:
[1] = molecular target: Muc2 of rabbit colonic mucus (rabbit); test: immunofluorescence colocalization on PFA-fixed rabbit colon
[2] = molecular target: Muc2 of rabbit ileal mucus (rabbit); test: fluorescent staining of PFA-fixed rabbit ileum, confocal microscopy
[3] = molecular target: Muc2 of guinea pig colonic mucus (guinea pig); test: fluorescent staining of PFA-fixed colon; attributed to Muc2 in paragraph 190
[4] = molecular target: Muc2 of rabbit colonic mucus (rabbit); test: as above

B1: Cy5-MUB70 (peptide)
peptide: CVHVQYIDGETDQMLRQDDLDGYTDETIPYSTAEGIKKFEGDGYELFKDNFPAGEKFDNDDTNDQFYTVIF
modifications: Cy5 mono maleimide on the added N-terminal Cys
notes: Chemically synthesized; also called MUB70-Cy5; Cy5-labeled MUB
[1]
  binding: binds
[2]
  binding: no binding (tested: 1 µg/mL)
[3]
  binding: binds
[4]
  binding: binds
